Results published in PubChem BioAssay (Tox21).
Values joined by “and” are separate entries in the source; they are usually repeats but may differ in a detail not shown here. Identical values can stand only once. The hits were mostly taken out for another list; the other results follow. Inconclusive results are not listed. Active and inactive are the calls of the source. Unless noted, calls follow the shape of the full dose curve.

Chains of the proteins cited; added tags and fusions are not shown. Lines headed by an entry give the natural chain unless they say otherwise; changes in a name come on top.
UniProt P30968: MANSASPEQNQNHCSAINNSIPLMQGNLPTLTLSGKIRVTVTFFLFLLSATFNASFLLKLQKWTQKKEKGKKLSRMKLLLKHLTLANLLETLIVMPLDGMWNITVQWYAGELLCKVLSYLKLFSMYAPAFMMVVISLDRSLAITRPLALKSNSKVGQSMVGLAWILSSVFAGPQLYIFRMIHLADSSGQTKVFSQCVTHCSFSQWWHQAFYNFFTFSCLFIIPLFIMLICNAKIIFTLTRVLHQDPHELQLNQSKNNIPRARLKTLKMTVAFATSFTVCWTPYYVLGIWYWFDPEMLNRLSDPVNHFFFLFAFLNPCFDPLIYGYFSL
UniProt Q969F8, whole entry, looked up: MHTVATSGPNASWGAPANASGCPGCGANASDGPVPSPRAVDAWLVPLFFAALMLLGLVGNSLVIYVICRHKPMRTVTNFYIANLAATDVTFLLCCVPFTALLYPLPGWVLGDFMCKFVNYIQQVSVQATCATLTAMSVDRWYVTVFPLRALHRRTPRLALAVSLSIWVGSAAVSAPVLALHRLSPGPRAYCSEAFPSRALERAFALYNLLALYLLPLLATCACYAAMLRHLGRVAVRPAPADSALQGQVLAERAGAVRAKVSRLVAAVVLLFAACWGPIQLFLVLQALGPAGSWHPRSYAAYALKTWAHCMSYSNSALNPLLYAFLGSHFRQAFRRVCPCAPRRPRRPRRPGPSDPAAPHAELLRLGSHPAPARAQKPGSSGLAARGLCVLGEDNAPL

Tests used:
[1] = biological target: Gonadotropin-releasing hormone receptor (Homo sapiens) (UniProt P30968); test: Human gonadotropin-releasing hormone receptor (GnRHR) small molecule agonists, calcium flux assay in GnRHR-HEK293 cells (AID 1920063); details: calcium flux fluorescence, agonist mode, active compounds read high; also: nearly all actives have a fitted effect of over 35% in size
Procedure, shortened: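 GnRHR-HEK293, 1500 cells/well, 18 h 37 C/5% CO2; Ca dye 1 h 37 C; cpd pinned (DMSO), agonist mode; kinetic FL 480/540, 3 min, 1 s reads; 15 conc, n=3.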

[2] = biological target: KiSS-1 receptor (Homo sapiens) (UniProt Q969F8); test: Human kisspeptin (KISS1R) small molecule agonists, calcium flux assay in KISS1R-HEK293 cells (AID 1920064; active = well fitted activation curve with a large enough effect in the repeat runs); details: KISS1R-HEK293, calcium flux fluorescence, agonist
Procedure, shortened: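 Stable human KISS1R HEK293 line; 18 h plating, 37 C/5% CO2; calcium dye 1 h 37 C; compound pin transfer; kinetic fluorescence Ex/Em 480/540, 3 min.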

[3] = G protein-coupled receptor (GPCR) small molecule agonists, calcium flux assay: HEK293 wild type cell line counter screen (AID 1920065); details: HEK293 WT calcium flux, fluorescence, agonist mode
Procedure, shortened: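 Kinetic fluorescence at Ex/Em 480/540, recorded every second over 3 min, served as the read-out after compound addition. Each compound was tested at 15 concentrations in triplicate on cells pre-loaded with calcium dye for 1 h.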

[4] = cAMP Responsive Elements (CRE) small molecule agonists, cell-based qHTS assay (AID 1963590); details: CRE-bla HEK293T, beta-lactamase FRET ratio, 3 h
Procedure, shortened: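 HEK 293T CRE-bla, 2,000 cells/well, 18 h preincubation 37 C/5% CO2; cpds (DMSO) pinned, 3 h; LiveBLAzer B/G FRET substrate, 2 h RT.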

[5] = cAMP Responsive Elements (CRE) small molecule antagonists, cell-based qHTS assay (AID 1963591; active = well fitted inhibition curve with a large enough effect in the signal ratio in the repeat runs, not every such curve was filed as active; the % refers to the signal ratio); details: CRE-bla HEK293T, beta-lactamase FRET ratio
Text: U.S. Tox21 Program National Center for Advancing Translational Sciences [NCATS] Division of Preclinical Innovation [DPI] U.S. Environmental Protection Agency [EPA] National Institutes of Environmental Health Sciences [NIEHS] National Toxicology Program [NTP] U.S. Food and Drug Administration [FDA] Tox21 Assay Overview: CREB (cyclic-AMP Responsive Element Binding Protein) is a cellular transcription factor. It binds to certain DNA sequences called cAMP Responsive Elements (CRE) and regulates the transcription of the genes. […] This cell line can be used to find agonists/antagonists of the cyclic AMP signaling pathway. The activation of the report gene under culture conditions can be detected by fluorescence intensity. This cell line has been used to screen the Tox21 10K compound library to […].
Tox21 Assay Protocol Summary: CRE-bla Hek 293T cells were suspended in assay medium (DMEM containing 10% dialyzed FBS, 0.1 mM NEAA, 1 mM sodium pyruvate and 25 mM HEPES) and dispensed at 2,000 cells/4 uL /well into 1536-well black wall/clear bottom plates using a Multidrop Combi (ThermoFisher Scientific, Waltham, MA) dispenser. After the assay plates were incubated at 37 C/5% CO2 for 18 hrs, 23 nL of compounds dissolved in DMSO, positive controls or DMSO only was transferred to the assay plate by a pintool workstation (Kalypsys, San Diego, CA), followed by addition of 1 […] uL of 1.25uM NKH477 (0.25 uM as final concentration) in assay medium using a Flying Reagent Dispenser (Aurora Discovery, San Diego, CA). The plates were incubated at 37 C and 5% CO2 for 3 hrs. Then 1 uL of LiveBLAzer B/G FRET substrate (Invitrogen, Carlsbad, CA) was added to each well using Bioraptr Flying Reagent Dispenser (FRD, Aurora Discovery, San Diego, CA). The plates were incubated at room temperature for 2 h.
% is scaled to controls: 0 for no effect and ±100 for the full control effect.

Cc1ccc(O)cc1C
inactive: activity change ([1]; at 57.6 µM (top of the series)) -0.927% and 0.793% | activation ([2]; at 76.8 µM (top of the series)) 0.387% and 0.209% | activation ([3]; at 57.6 µM (top of the series)) -0.052% and -1.66% | activation ([4]; at 92.4 µM (top of the series)) 0.0482% and 0.0157% | activity change, negative = inhibition ([5]; at 92.4 µM (top of the series)) 1.23%

Cc1ccc2ccccc2c1C
inactive: activity change ([1]; at 57.6 µM (top of the series)) 0.206% and -0.45% | activation ([2]; at 76.8 µM (top of the series)) -2.4% and -1.06% | activation ([3]; at 57.6 µM (top of the series)) 0.928% and -1.78% | activation ([4]; at 92.4 µM (top of the series)) -0.0895% and 1.62% | activity change, negative = inhibition ([5]; at 92.4 µM (top of the series)) 4.88%

O=[N+]([O-])c1ccccc1Cl
inactive: activity change ([1]; at 57.6 µM (top of the series)) -1.48% | activation ([2]; at 76.8 µM (top of the series)) -2.51% | activation ([3]; at 57.6 µM (top of the series)) -0.112% | activation ([4]; at 92.4 µM (top of the series)) -0.0538% | activity change, negative = inhibition ([5]; at 92.4 µM (top of the series)) 1.06%

CC(C)(C)c1ccc(O)cc1
inactive: activity change ([1]; at 26.4 µM (top of the series)) -0.805% | activity change ([1]; at 57.6 µM (top of the series)) 7.57% and 1.08% | activation ([2]; at 35.3 µM (top of the series)) -0.67% | activation ([2]; at 76.8 µM (top of the series)) -1.83% and 2.83% | activation ([3]; at 26.5 µM (top of the series)) -0.781% | activation ([3]; at 57.6 µM (top of the series)) 2.13% and -1.07% | activation ([4]; at 42.5 µM (top of the series)) 1.08% | activation ([4]; at 92.4 µM (top of the series)) 0.885% | activity change, negative = inhibition ([5]; at 42.4 µM (top of the series)) -9.69% | activity change, negative = inhibition ([5]; at 92.4 µM (top of the series)) -19.1%

Oc1c(Cl)cc(Cl)cc1Cl
inactive: activity change ([1]; at 57.6 µM (top of the series)) 1.09% and -0.991% | activation ([2]; at 76.8 µM (top of the series)) 1.26% and 0.0001% | activation ([3]; at 57.6 µM (top of the series)) -0.738% and 0.212% | activation ([4]; at 92.4 µM (top of the series)) 1.02% and 1.74% | activity change, negative = inhibition ([5]; at 92.4 µM (top of the series)) 5.68% and 3.31%
